This test has as its target KLF4 (human (endogenous in HFKs and HFK-31gen cells)) (UniProt O43474). The test is described as follows: co-IP; lysates of differentiated HFKs and HFK-31gen cells in RIPA buffer with SDS and protease, phosphatase and desumoylation inhibitors; 200 ug protein precipitated overnight with KLF4 antibody (SC-393462) and protein A/G agarose beads, three washes with RIPA buffer; western blot for Blimp1. For orientation: Immunoblotting shows a protein as a band on a membrane.

Sequences of proteins named here, by UniProt entry; tags and fusion partners are left off.
UniProt O43474: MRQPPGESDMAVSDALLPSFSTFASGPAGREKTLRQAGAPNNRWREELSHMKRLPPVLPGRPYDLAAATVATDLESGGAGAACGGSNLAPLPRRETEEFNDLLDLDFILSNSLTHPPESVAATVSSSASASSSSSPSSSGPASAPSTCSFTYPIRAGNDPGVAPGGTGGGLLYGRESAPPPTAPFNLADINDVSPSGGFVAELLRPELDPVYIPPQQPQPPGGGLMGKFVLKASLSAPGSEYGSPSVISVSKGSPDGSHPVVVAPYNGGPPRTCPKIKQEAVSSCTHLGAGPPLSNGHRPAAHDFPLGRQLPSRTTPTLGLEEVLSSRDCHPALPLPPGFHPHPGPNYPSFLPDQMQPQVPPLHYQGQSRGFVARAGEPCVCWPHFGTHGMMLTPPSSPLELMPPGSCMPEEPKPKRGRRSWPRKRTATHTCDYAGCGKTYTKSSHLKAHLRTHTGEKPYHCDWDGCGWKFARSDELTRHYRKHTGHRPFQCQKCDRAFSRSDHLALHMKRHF
UniProt O75626: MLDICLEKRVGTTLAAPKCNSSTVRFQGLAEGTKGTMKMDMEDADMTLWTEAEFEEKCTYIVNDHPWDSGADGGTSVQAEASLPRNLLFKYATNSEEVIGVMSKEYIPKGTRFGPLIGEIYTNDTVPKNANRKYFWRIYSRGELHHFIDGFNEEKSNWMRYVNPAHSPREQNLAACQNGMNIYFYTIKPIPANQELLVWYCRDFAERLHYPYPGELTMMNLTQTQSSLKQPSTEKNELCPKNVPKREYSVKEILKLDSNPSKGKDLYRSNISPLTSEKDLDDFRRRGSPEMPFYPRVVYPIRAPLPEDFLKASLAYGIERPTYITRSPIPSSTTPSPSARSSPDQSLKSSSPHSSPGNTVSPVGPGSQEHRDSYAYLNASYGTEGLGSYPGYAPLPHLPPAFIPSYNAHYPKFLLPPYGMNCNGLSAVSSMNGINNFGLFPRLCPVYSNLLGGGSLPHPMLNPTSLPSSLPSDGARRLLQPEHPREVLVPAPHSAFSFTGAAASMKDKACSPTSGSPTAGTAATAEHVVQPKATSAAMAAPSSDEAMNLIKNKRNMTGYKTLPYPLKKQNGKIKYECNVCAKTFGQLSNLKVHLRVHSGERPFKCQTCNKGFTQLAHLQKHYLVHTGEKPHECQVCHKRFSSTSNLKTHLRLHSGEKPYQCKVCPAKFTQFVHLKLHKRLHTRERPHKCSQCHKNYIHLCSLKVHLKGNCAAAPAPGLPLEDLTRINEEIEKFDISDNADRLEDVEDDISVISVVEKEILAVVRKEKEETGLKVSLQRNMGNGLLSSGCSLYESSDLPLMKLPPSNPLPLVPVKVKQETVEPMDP

No constants are given. Whether binding was seen depends on the method and setting. In cells and extracts the contact can be indirect. Some binding calls cover weakened binding; strength is not graded here.

As for Blimp1 (from UniProt O75626 1-825), the binding entry is “binds”.
